# Reference: the supplement of paper PMC7238544
# Structures can show the parent of a compound that is named as a salt. ± gives the standard deviation of the averaged measurements. The list shows a part of the results. The data scatter; read single values as rough.
# Columns and labels:
# hAMSC donor 1 [1] = assay: Hoechst total cell count ratio vs vehicle control; higher = more cells (less toxicity)
# hAMSC donor 2 [2] = assay: as above
# hAMSC donor 1 [3] = assay: transgenic luciferase activity (RLU/mg protein) fold change vs vehicle control (ratio); higher = more transgene expression
# hAMSC donor 2 [4] = assay: as above
# hAMSC donor 1 [5] = assay: transfection efficiency (EGFP+ cells / Hoechst count) fold change vs vehicle control (ratio); hAMSC are human adipose-derived mesenchymal stem cells given an EGFP-luciferase plasmid by lipofection; higher = enhanced transfection
# hAMSC donor 2 [6] = assay: as above
# [7] = priming compound concentration 0.2 µM
# [8] = priming compound concentration 1.7 µM
# [9] = priming compound concentration 13 µM
SMILES,Hoechst total cell count ratio (hAMSC donor 1 [1]; [7]),Hoechst total cell count ratio (hAMSC donor 1 [1]; [8]),Hoechst total cell count ratio (hAMSC donor 1 [1]; [9]),Hoechst total cell count ratio (hAMSC donor 2 [2]; [7]),Hoechst total cell count ratio (hAMSC donor 2 [2]; [8]),Hoechst total cell count ratio (hAMSC donor 2 [2]; [9]),transgenic luciferase activity (hAMSC donor 1 [3]; [8]),transgenic luciferase activity (hAMSC donor 1 [3]; [9]),transgenic luciferase activity (hAMSC donor 2 [4]; [7]),transgenic luciferase activity (hAMSC donor 2 [4]; [8]),transgenic luciferase activity (hAMSC donor 2 [4]; [9]),transfection efficiency (hAMSC donor 1 [5]; [7]),transfection efficiency (hAMSC donor 1 [5]; [8]),transfection efficiency (hAMSC donor 1 [5]; [9]),transfection efficiency (hAMSC donor 2 [6]; [7]),transfection efficiency (hAMSC donor 2 [6]; [8]),transfection efficiency (hAMSC donor 2 [6]; [9]),transgenic luciferase activity (hAMSC donor 1 [3]; [7])
CNCCCN1c2ccccc2CCc2ccccc21 [Desipramine hydrochloride],1.16 ± 0.13,1.25 ± 0.12,1.4 ± 0.12,1.21 ± 0.31,1.205 ± 0.008,1.59 ± 0.067,0.196 ± 0.049,0.794 ± 0.19,0.935 ± 0.27,0.989 ± 0.25,0.385 ± 0.13,1.48 ± 0.18,1.25 ± 0.5,0.404 ± 0.14,1.08 ± 0.15,1.02 ± 0.042,0.587 ± 0.14,
CCN(CC)C(=S)SSC(=S)N(CC)CC [Disulfiram],1.11 ± 0.12,1.24 ± 0.068,0.262 ± 0.027,0.894 ± 0.26,0.934 ± 0.17,0.0947 ± 0.07,0.47 ± 0.15,2.03 ± 0.87,1.22 ± 0.6,0.913 ± 0.076,0.0343 ± 0.026,1.12 ± 0.42,0.928 ± 0.28,,1.18 ± 0.26,1.33 ± 0.089,1.27 ± 0.61,0.653 ± 0.048
OC[C@H]1O[C@@H](Oc2cc(O)cc(/C=C/c3ccc(O)cc3)c2)[C@H](O)[C@@H](O)[C@@H]1O [Piceid],1.49 ± 0.13,1.17 ± 0.03,1.3 ± 0.17,1.14 ± 0.034,1.43 ± 0.054,1.01 ± 0.14,1.17 ± 0.8,,0.675 ± 0.14,0.271 ± 0.12,1.12 ± 0.23,0.795 ± 0.14,0.821 ± 0.065,1.18 ± 0.23,0.856 ± 0.023,1.02 ± 0.23,1.37 ± 0.31,0.369 ± 0.29
O=C(O)c1cc(-c2ccc(F)cc2F)ccc1O [Diflunisal],1.26 ± 0.081,1.06 ± 0.064,1.47 ± 0.13,1.14 ± 0.067,1.22 ± 0.073,1.45 ± 0.078,1.12 ± 0.44,0.471 ± 0.14,0.753 ± 0.077,0.504 ± 0.0086,0.494 ± 0.1,0.937 ± 0.22,1.24 ± 0.13,0.77 ± 0.29,0.936 ± 0.035,0.952 ± 0.29,0.84 ± 0.11,
CC[C@H](C)C(=O)O[C@H]1C[C@H](O)C=C2C=C[C@H](C)[C@H](CC[C@@H](O)C[C@@H](O)CC(=O)O)[C@H]21 [Pravastatin sodium],1.04 ± 0.1,1.09 ± 0.16,0.892 ± 0.042,0.754 ± 0.059,0.549 ± 0.071,1.09 ± 0.021,0.685 ± 0.26,0.977 ± 0.82,,,1.18 ± 0.27,1.19 ± 0.019,1.4 ± 0.21,0.858 ± 0.065,1.32 ± 0.015,1.24 ± 0.11,1.34 ± 0.58,0.683 ± 0.23
Cc1cn([C@H]2C=C[C@@H](CO)O2)c(=O)[nH]c1=O [Stavudine],1.54 ± 0.047,1.26 ± 0.13,1.26 ± 0.024,0.867 ± 0.033,0.758 ± 0.093,0.92 ± 0.16,0.916 ± 0.28,0.489 ± 0.11,,,0.97 ± 0.18,1.17 ± 0.11,1.2 ± 0.23,0.84 ± 0.077,1.31 ± 0.17,1.63 ± 0.052,1.37 ± 0.25,0.598 ± 0.13
CC(=O)Nc1nnc(S(N)(=O)=O)s1 [Acetazolamide],1.41 ± 0.28,1.25 ± 0.093,1.22 ± 0.031,0.892 ± 0.1,0.881 ± 0.06,1.24 ± 0.21,0.934 ± 0.087,1.07 ± 0.32,,,0.888 ± 0.041,1.29 ± 0.17,1.08 ± 0.17,0.861 ± 0.13,1.32 ± 0.079,1.11 ± 0.22,1.24 ± 0.25,0.594 ± 0.17
